Reference: PubChem BioAssay AID298 (DTP/NCI, 2004)
The list does not hold the whole screen: it is rich in T/C values a quarter to a half above the control, in often repeated tests (any T/C) and in doses without a T/C. Further doses and runs are listed elsewhere. T/C is the treated group as % of the vehicle group. Schedules are NCI's codes, taken here to give the interval after Q, in days (D) or hours (H), and the number of doses after X. Some values lie below zero, which means that the treated tumours became smaller. Some doses were run more than once; the results are listed from low to high. Brackets with × count equal records among those shown. Some T/C values are followed by the survivors on the day toxicity was checked, most often the fifth; where none is given, no animal had died by that day. Some entries give survivors of the animals treated and no T/C: the source files T/C as zero there, which appears to mark a toxic dose or a test without result, not a measured value. Survivors were counted at the toxicity check, usually on the fifth day, unless a day is given; later deaths do not show.

Tested on: MX-1 breast xenograft, intrarenal, nude mice, tumor weight
Assay: NCI In Vivo Anticancer Drug Screen. Data for tumor model Human Mammary Carcinoma MX-1 Xenograft (intrarenal inoculation) in NU/NU BALB/C (nude) mice
Conditions: T/C endpoint: mean tumor weight change, higher T/C = larger tumour; for T/C: evaluated on day 11
In short: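 Efficacy in vivo: tumor measurement or survival of treated animals divided by that of vehicle-dosed controls.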

[1] = dose: 1200.0 mg/kg/injection, schedule: Q04DX003 (sc), vehicle: Klucel (hydroxypropylcellulose) (HPC)
[2] = dose: 200.0 mg/kg/injection, schedule: Q04DX003 (ip), vehicle: saline

For `CCC1(O)C(=O)OCc2c1cc1n(c2=O)Cc2cc3cc(N)ccc3nc2-1` (stereo not given), the survivor count (dose: 15.0 mg/kg/injection, schedule: Q04DX003 (ip), vehicle: suspension in saline) was 3 of 6 on day 11, the survivor count (dose: 30.0 mg/kg/injection, schedule: Q04DX003 (ip), vehicle: suspension in saline) was 0 of 6 on day 11 and the survivor count (dose: 60.0 mg/kg/injection, schedule: Q04DX003 (ip), vehicle: suspension in saline) was 0 of 6 on day 11.

In the case of `C=C1C(O)C2(O)OCC34C(CC5C(C)=CC(=O)C(O)C5(C)C23)OC(=O)C(OC(=O)C/C=C/CCCCCCCC)C14` (stereo not given), the survivor count (dose: 25.0 mg/kg/injection, schedule: Q04DX003 (ip), vehicle: saline + alcohol) is reported as 3 of 6 on day 11, the survivor count (dose: 50.0 mg/kg/injection, schedule: Q04DX003 (ip), vehicle: saline + alcohol) is reported as 0 of 6 on day 11 and the survivor count (dose: 100.0 mg/kg/injection, schedule: Q04DX003 (ip), vehicle: saline + alcohol) is reported as 0 of 6 on day 11.

With `COC1C(CO)OC(n2cnc3c(=S)nc(N)[nH]c32)C1O` (stereo not given) the survivor count (dose: 600.0 mg/kg/injection, schedule: Q04DX003 (sc), vehicle: Klucel (hydroxypropylcellulose) (HPC)) was 2 of 6 on day 11 and the survivor count [1] was 0 of 6 on day 11.

With `COC(=O)[C@@]12OC[C@]34[C@H]([C@@H](O)[C@@H]1O)[C@@]1(C)CC(=O)C(O)=C(C)[C@@H]1C[C@H]3OC(=O)[C@H](OC(=O)/C=C(\C)C(C)C)[C@@H]24` the T/C (dose: 0.13 mg/kg/injection, schedule: Q01DX010 (sc), vehicle: saline + alcohol) was 138 % of control, the T/C (dose: 0.25 mg/kg/injection, schedule: Q01DX010 (sc), vehicle: saline + alcohol) was 141 % of control and the T/C (dose: 0.5 mg/kg/injection, schedule: Q01DX010 (sc), vehicle: saline + alcohol) was 126 % of control.

`CO[C@@H]1C2=CC=CC=C[C@H]2n2c(=O)n(C)c(=O)n21` was tested, and the survivor count (dose: 600.0 mg/kg/injection, schedule: Q04DX003 (ip), vehicle: other) was 3 of 6 on day 11.

With `CNc1n[n+](-c2ccccc2)no1` the survivor count (dose: 150.0 mg/kg/injection, schedule: Q04DX003 (sc), vehicle: water) was 1 of 6 on day 11.

`Cc1ccc(S(=O)(=O)NC(=O)OC23COCN2COC3)cc1` was tested, and the T/C (dose: 400.0 mg/kg/injection, schedule: Q04DX003 (sc), vehicle: saline with Tween-80) was 127 % of control.

For `Nc1ccc2ccc(N)cc2c1`, the survivor count (dose: 600.0 mg/kg/injection, schedule: Q04DX003 (ip), vehicle: saline with Tween-80) was 1 of 6 on day 11 and the survivor count (dose: 1200.0 mg/kg/injection, schedule: Q04DX003 (ip), vehicle: saline with Tween-80) was 0 of 6 on day 11.

In the case of `C[n+]1c(/C=N/NC(N)=S)ccc2ccccc21`, the survivor count (dose: 600.0 mg/kg/injection, schedule: Q04DX003 (sc), vehicle: saline with Tween-80) is reported as 2 of 6 on day 11, the survivor count (dose: 1200.0 mg/kg/injection, schedule: Q04DX003 (sc), vehicle: saline with Tween-80) is reported as 1 of 6 on day 11 and the survivor count (dose: 2400.0 mg/kg/injection, schedule: Q04DX003 (sc), vehicle: saline with Tween-80) is reported as 1 of 6 on day 11.

`[Cl][Hg][Cl]` was tested, and the T/C (dose: 2.5 mg/kg/injection, schedule: Q04DX003 (ip), vehicle: saline) was 126 % of control, the survivor count (dose: 10.0 mg/kg/injection, schedule: Q04DX003 (ip), vehicle: saline) was 0 of 6 on day 11 and the survivor count (dose: 20.0 mg/kg/injection, schedule: Q04DX003 (ip), vehicle: saline) was 0 of 6 on day 11.

For `O=C1C=C(N2CC2)C(=O)C(N2CC2)=C1N1CC1`, the survivor count (dose: 400.0 micrograms/kg/injection, schedule: Q04DX003 (ip), vehicle: saline) was 0 of 6 on day 11 and 1 of 5 on day 11.

With `O=C(O)[C@H](Cc1ccccc1)N1C(=O)c2ccccc2C1=O` the survivor count (dose: 1200.0 mg/kg/injection, schedule: Q04DX003 (ip), vehicle: DMSO) was 0 of 6 on day 11.

With `CN=NN(C)C(=O)NC` the T/C (dose: 108.0 mg/kg/injection, schedule: Q04DX003 (ip), vehicle: saline with Tween-80) was 125 % of control, the survivor count (dose: 180.0 mg/kg/injection, schedule: Q04DX003 (ip), vehicle: saline) was 1 of 6 on day 11 and the T/C (dose: 300.0 mg/kg/injection, schedule: Q04DX003 (ip), vehicle: saline with Tween-80) was 138 % of control. The survivor count (dose: 300.0 mg/kg/injection, schedule: Q04DX003 (ip), vehicle: saline) was 0 of 6 on day 11 and the survivor count (dose: 500.0 mg/kg/injection, schedule: Q04DX003 (ip), vehicle: saline) was 0 of 6 on day 11.

With `CN(C)CCCN=c1c2ccccc2n(C)c2[nH]c(=O)n(C)c(=O)c12` the survivor count (dose: 100.0 mg/kg/injection, schedule: Q04DX003 (ip), vehicle: saline) was 0 of 6 on day 11 and the survivor count [2] was 0 of 6 on day 11.

With `CC1CN1P1(N2CC2C)=NP(N2CC2C)(N2CC2C)=NP(N2CC2C)(N2CC2C)=N1` (stereo not given) the survivor count (dose: 300.0 mg/kg/injection, schedule: Q04DX003 (sc), vehicle: saline) was 1 of 6 on day 11 and the survivor count (dose: 600.0 mg/kg/injection, schedule: Q04DX003 (sc), vehicle: saline) was 0 of 6 on day 11.

For `N=C(N)c1ccc(Nc2ccc(-c3cc4ccc(C(=N)N)cc4[nH]3)cc2)cc1`, the survivor count (dose: 30.0 mg/kg/injection, schedule: Q04DX003 (ip), vehicle: saline) was 3 of 6 on day 11.

`O=C1[C@@H]2C3C=CC([C@H]4C(=O)N(CO)C(=O)[C@@H]34)[C@@H]2C(=O)N1CO` was tested, and the survivor count (dose: 400.0 mg/kg/injection, schedule: Q04DX003 (ip), vehicle: Klucel (hydroxypropylcellulose) (HPC)) was 0 of 6 on day 11 and the survivor count (dose: 800.0 mg/kg/injection, schedule: Q04DX003 (ip), vehicle: Klucel (hydroxypropylcellulose) (HPC)) was 0 of 6 on day 11.

`O=C(CN1CCOCC1)Nc1nc(-c2ccc(Cl)cc2)cs1` was tested, and the T/C (dose: 300.0 mg/kg/injection, schedule: Q04DX003 (ip), vehicle: other) was 138 % of control.

For `CC(C)NC(=O)OCc1c(COC(=O)NC(C)C)c(-c2ccc(Cl)c(Cl)c2)n2c1CCC2`, the T/C (dose: 30.0 mg/kg/injection, schedule: Q04DX003 (ip), vehicle: distilled water + Tween-80) was -100 (2×) and 1 % of control (2×), the T/C (dose: 60.0 mg/kg/injection, schedule: Q04DX003 (ip), vehicle: distilled water + Tween-80) was -87 [5 of 6 alive on day 11] (2×) and -82 % of control (2×) and the T/C (dose: 120.0 mg/kg/injection, schedule: Q04DX003 (ip), vehicle: distilled water + Tween-80) was -92 (2×) and -81 % of control [5 of 6 alive on day 11] (2×). For the same compound, the T/C (dose: 240.0 mg/kg/injection, schedule: Q04DX003 (ip), vehicle: distilled water + Tween-80) was -91 [4 of 6 alive on day 11] (2×) and -67 % of control (2×).

For `CC(=O)OCN(C)C=O`, the T/C (dose: 300.0 mg/kg/injection, schedule: Q01DX010 (ip), vehicle: suspension in saline) was 138 % of control, the survivor count (dose: 600.0 mg/kg/injection, schedule: Q01DX010 (ip), vehicle: suspension in saline) was 0 of 3 on day 11 and the survivor count (dose: 1200.0 mg/kg/injection, schedule: Q01DX010 (ip), vehicle: suspension in saline) was 0 of 3 on day 11 and 0 of 4 on day 11. The survivor count (dose: 2400.0 mg/kg/injection, schedule: Q01DX010 (ip), vehicle: suspension in saline) was 0 of 3 on day 11 and 0 of 4 on day 11 and the survivor count (dose: 4800.0 mg/kg/injection, schedule: Q01DX010 (sc), vehicle: saline) was 3 of 6 on day 11.

For `c1ccc2c(c1)-c1ccccc1C1NC21` (stereo not given), the survivor count (dose: 150.0 mg/kg/injection, schedule: Q04DX003 (sc), vehicle: saline with Tween-80) was 0 of 6 on day 11 and the survivor count (dose: 300.0 mg/kg/injection, schedule: Q04DX003 (sc), vehicle: saline with Tween-80) was 0 of 6 on day 11.

For `NCCSC(C[N+](=O)[O-])c1ccccc1Cl` (stereo not given), the survivor count [2] was 0 of 6 on day 11 and the survivor count (dose: 400.0 mg/kg/injection, schedule: Q04DX003 (ip), vehicle: saline) was 0 of 6 on day 11.

With `CC(=O)c1c(O)c(C)c(O)c2c1OC1=CC(=O)C(C(C)=O)C(=O)C12C` (stereo not given) the T/C (dose: 100.0 mg/kg/injection, schedule: Q01DX010 (sc), vehicle: sodium bicarbonate) was 128 % of control and the survivor count (dose: 800.0 mg/kg/injection, schedule: Q01DX010 (sc), vehicle: sodium bicarbonate) was 0 of 3 on day 11.

In the case of `CN=C(NC#N)NCCSCc1nc[nH]c1C`, the T/C (dose: 300.0 mg/kg/injection, schedule: Q04DX003 (sc), vehicle: Klucel (hydroxypropylcellulose) (HPC)) is reported as 146 % of control, the T/C [1] is reported as 130 % of control and the survivor count (dose: 2400.0 mg/kg/injection, schedule: Q04DX003 (sc), vehicle: Klucel (hydroxypropylcellulose) (HPC)) is reported as 1 of 5 on day 11.
